Test results from PubChem BioAssay AID1508600 (Functional Genomics Laboratory (NCATS/FGL), 2020).
In all, about 53,000 sequences went through this assay and about 3,700 (7%) were called active.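 How the source made its calls: active means gene knockdowns whose robust z-score for IL-1 alpha signal is at least 2 or at most -2, so actives lie on both sides; inactive means the rest.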 This is one part of the list.

assay: Components of the Cytosolic LPS Sensing Pathway: Gene Identification via Genome-wide siRNA Screen; details: RAW264.7 macrophages, IL-1a HTRF, actives lie on both sides, screened at 100 nM (by protocol), cells primed 5 h with Pam3CSK4 first;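 further: robust z of the log signal after scaling to non-targeting control siRNA wells of the plate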
How it was run: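 Read-out: IL-1a HTRF on supernatant, divided by plate negative-control median ×100, log-transformed and converted to robust z-score. Cells were RAW264.7 given 100 nM siRNA, Pam3CSK4-primed 5 hours, then LipidA-transfected 24 hour.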

Sequence	z-score
GGAUCAGACACCUGUUUUATT against Pkhd1	inactive: 0.486
GGAUGUAUCUGGAGAAUUUTT against Cldnd1	inactive: 0.757
GGUGGUCACCAAGAAGUUUTT against Prps2	active: 2.52
CGAGGGAAUGCACUACAACTT against Chpf	active: 2.16
GGCUUUCAAUACGUGUGUCTT against Olfr15	inactive: -0.297
GGAUGCUGGACCAAAAUUGTT against 9330175E14Rik	inactive: -1.07
GCCUGUUACUGACUAUAACTT against Sppl2c	inactive: 0.717
GGAUGAAUUCAUUGAAGAATT against Btk	inactive: 0.321
GCCAGAUGAUUGUGCAUCCTT against Nfatc3	inactive: -0.312
CCUUAUGAUCCCAACUUUUTT against Hnrnpk	inactive: 0.0422
CCAGCGAGAAUGAAAUUCCTT against Notum	inactive: -1.35
GGAAAUGGCAGGCAAGAUCTT against Gpr50	inactive: -0.506
CCAUCAGGGUUACAAGUACTT against 6030458C11Rik	active: -2.46
GGGUCCUAUUUAUUUAUGUTT against Cxcl1	inactive: 0.372
GGAUGAACGAGCUAUCGAGTT against Pdcl3	inactive: -0.221
GGACCAACAAUCCAGGAUUTT against Fam133b	inactive: 0.401
GGCUAAGGACUUGCCAACUTT against Pip4k2b	inactive: -1.37
CGAUUUUCUAACCUCGAGUTT against Dlx2	inactive: -0.515
GGAGUCAUUGACCAGAUAUTT against Psmd5	inactive: -0.68
GGGAAGUCUACAUAAAUCCTT against Gpr176	inactive: -0.544
GGAAUUCGUAAAGAUUGCATT against Esrp2	inactive: -0.158
GGUCUGGUCAUCUCAGUUUTT against Tmem159	active: 3.53

2 entries from above, as labelled records.
GGAAAUGGCAGGCAAGAUCTT against Gpr50
  z-score: inactive: -0.506
GGGUCCUAUUUAUUUAUGUTT against Cxcl1
  z-score: inactive: 0.372

The results go on.

Sequence	z-score
CCAUAUGGUAACCAAACCGTT against Ldb1	inactive: -0.896
GGAAAAGAGACUGAAGAAATT against Lhx3	inactive: -0.533
GGGUUUGCUCAUAAAAUAATT against 4933400A11Rik	inactive: -1.25
GGAAAGAGAGCUGAGCUUATT against Pla2g2a	inactive: -0.54
GCAGUAACUGUGUCAAAAUTT against Zan	inactive: 0.879
CCUUUUACUAGACACAGUCTT against Tmem35a	inactive: -1.26
GGUGUGUUUUCAUGUUUUUTT against Rel	inactive: 0.388
GCUGCAUGCGUAAAUAGAATT against Slc22a19	inactive: -0.38
GGACCACAAAUAGCAAAAATT against Zfp74	inactive: -0.987
GGACCAUGAGGGAAUACAGTT against Bdkrb2	active: 4.91
GGGUUUGUUAAGUCCUGUGTT against Gsdmc	active: -2.09
GGAGACUGCUUCUAAAGAUTT against Fam114a2	inactive: -0.416
GGCAUUCAUCUAGUCCUGCTT against Bst1	inactive: -1.69
CGCAUGCUUCGGUACAUCATT against Macroh2a1	inactive: 1.4
GCUACGGCGUGGUUUAUGATT against Stk35	inactive: 0.017
CCCAAUAUGUUAGACCCUGTT against Slc16a8	inactive: 0.448
GGGUUUUUGUGUACAAUGATT against Ttll6	inactive: -0.0864
CGGGAGAUGCGUUUGUUUUTT against 6030458C11Rik	inactive: 1.52
GGAAGCUGCACGGCAACUUTT against Btn2a2	inactive: -0.132
CCUUCGAACUCGAAAAAUUTT against Olfr722	inactive: 0.338
GGCUUUCAAGAUUCAGUGATT against Gsta1	inactive: 0.103
CCUCAUGGCUUUGGCCAUUTT against Olfr1133	inactive: 0.66

Sequence	z-score
GGAUUUAGGUUUUGGUUUUTT against Ghitm	inactive: 0.412
GGAUUGUCUUCCUACUGGGTT against Zdhhc4	inactive: 0.16
GGUGAGCGGCCAGAAGUUUTT against Elk1	inactive: 0.335
CCGUUACAAUCAGUUAUUATT against Ccdc88a	inactive: 0.316
GGAAAUCCUUGACUACAUUTT against Cyp2b19	inactive: 0.31
GGCUUCUGGACCUCAAACATT against Zfp92	active: -2.14
GGUCAUUAUUGGAUGCAUCTT against Mga	inactive: 0.474
GGCGAAAGCCUUGAGGUUGTT against Tra2a	inactive: 0.995
GGCGAACAUGCACUUUCACTT against Gramd3	inactive: -1.28
GGAGCUCUUUGAGUACAUCTT against Ift46	active: 2.48
GGACUAGCAAGGCAAGUGATT against Dnase2b	inactive: 1.32
GGAUAAGUGGUCUGCACUATT against Ube2c	inactive: -0.412
GGAGGUGGUGUUUAUACCATT against Scrn2	inactive: 0.728
GGAAAAUCUAUAGGUAGAGTT against Nuak1	inactive: 1.26
GGAUUUAAUACCCAGCAGCTT against Nup54	inactive: 0.247
GGAUCAUUCGGACAAAAGUTT against Pax5	inactive: -1.31
GGUGUCCCUUAAUGUGUCCTT against Heg1	inactive: 0.671
GGUCACACAUUUUUUGUGATT against F8	inactive: 0.712
CCUACAGAAUAGAAAAUUCTT against Elmod2	inactive: -0.161
GGUGCUGAUCUACAGGAUGTT against Lrfn2	inactive: 0.721
CCCUUUCCAGCCAGAUCAATT against 1700016K19Rik	inactive: 1.58
CCCUAGUGCAGUGAUAACUTT against 1700016D06Rik	inactive: 0.938

An excerpt of these results, in markdown:

| Sequence | z-score |
| --- | --- |
| GGUGUGUUUUCAUGUUUUUTT against Rel | inactive: 0.388 |
| GGAGCUCUUUGAGUACAUCTT against Ift46 | active: 2.48 |
| GGACUAGCAAGGCAAGUGATT against Dnase2b | inactive: 1.32 |

Carrying on.

Sequence	z-score
GCAUCAAGAGAUCUGAUUATT against Cdt1	inactive: -1.12
GGUGAGGAGGAAAUCCUGCTT against Rdh10	inactive: -1.21
GGGCACCUAUUCAGAUACCTT against Map2	inactive: 0.685
GCUUUGUCCGCACAUUAUCTT against H3c15	inactive: -0.1
GGAAUUCCUCUUCAACAUGTT against Hoxd9	inactive: -0.295
GGAUGUUUUAAUCUAAAGCTT against Ccdc3	inactive: -0.106
CGUAUCUUAUAUCAGGAAATT against Trem1	inactive: 0.513
GGCCAAUGACAGAACCUAUTT against Atp8b3	inactive: -0.19
GGCUUUAAUGUGUCAGUACTT against Slc25a5	inactive: -0.228
GGAAUUUGUGACCAACUAUTT against Rbm4b	inactive: 1.07
CCUCCAGUGGUAACAUUAGTT against Olfr301	inactive: 0.944
GGCGAGAAGGAAAUGUACATT against Arpc3	active: 2.62
CCACGUUUACACCAACGUGTT against Fads6	inactive: 0.357
GGCACUCAAUGUCUUCUAUTT against Nbeal1	inactive: 0.516
GGAUUGAGAAUAUCUGAGUTT against H2-T3	inactive: -0.934
GGGAGUCUAUGCUAUGGGUTT against Ddx19b	inactive: -0.38
GGCCAAGUUCCAUAUCACCTT against Eefsec	inactive: 0.46
GGAAGUUCCGUCGAUUUGATT against Cyp8b1	inactive: -0.604
GCACAAUGUCCCAUCGUGGTT against Rps5	inactive: -0.6
CCUUCUCUCAUAACUCAUCTT against Rbak	inactive: 1.23
GGUUUUUCUCUCUCUCAUUTT against Epas1	inactive: 0.166
GCCAUGCUAAUCAAGACGGTT against Gtf2ird2	inactive: -0.99

Sequence	z-score
GCAAAAGUUCCAAAAAUCCTT against Cryba1	inactive: 0.0525
CGGAAUGGUUCUUUCACAGTT against Adamts13	inactive: -0.777
GGAACAUCAAUCCAAAUCCTT against Fam122c	inactive: 1.33
GCUUCUGCUAGAUGAAAAUTT against Rgs7	inactive: -0.127
GGGUGUUCUACAGAAAUGATT against Orc5	inactive: -1.98
GGAGUUCGAGAAAGACAAATT against Eif4g3	inactive: 0.938
GGAGUGAUUCAGUGAAAACTT against Iqcf3	inactive: -0.289
GGCGAUGACAAGGAUCCUUTT against Cyb5b	inactive: 0.2
CCUGAUUUAUGCAGAAUUATT against Ube2d3	inactive: 0.775
GGCUGUCGAGGAUCUAAACTT against Cyp4a14	inactive: 0.702
GGCACACAAGAUUCUAGUGTT against Git2	inactive: 0.364
GCAUGUUAAGCCUUGUAUATT against Tnpo1	inactive: -1.67
GGAUAGCAAAUUCAUCACATT against Ptprg	inactive: -0.214
GGAAUUCACUUCGAGGCAUTT against Npas2	inactive: 0.178
GGCCAAUUAAUUCUUACAGTT against Srl	inactive: 1.57
GGAAGAUAUGAAGGGCUCATT against Mb	active: -2.18
GGCUGUCUGCUGAAAUGAUTT against Zmym6	inactive: 0.754
CGACAGCACUAUGCUGGGUTT against Psmb4	inactive: -1.49
GCUAGACUCCUACAGCAAUTT against Prss8	inactive: 0.802
